Results reported in publication PMC12663309.
No constants are given. Whether binding was seen depends on the method and setting. For some of these results: Binding seen in cells or lysates may run through a third protein. Some entries that bind do so weakly or less than the wild type.

Chains of the proteins cited; added tags and fusions are not shown.
UniProt Q9ES74: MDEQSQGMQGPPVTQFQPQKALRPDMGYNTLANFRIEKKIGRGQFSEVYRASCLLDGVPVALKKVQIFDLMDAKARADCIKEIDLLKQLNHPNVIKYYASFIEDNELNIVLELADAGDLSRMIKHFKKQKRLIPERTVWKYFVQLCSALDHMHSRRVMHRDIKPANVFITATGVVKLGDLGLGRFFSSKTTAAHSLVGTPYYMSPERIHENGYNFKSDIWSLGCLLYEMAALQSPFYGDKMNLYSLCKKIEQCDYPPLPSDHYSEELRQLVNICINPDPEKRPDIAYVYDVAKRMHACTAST
UniProt Q8TDX7: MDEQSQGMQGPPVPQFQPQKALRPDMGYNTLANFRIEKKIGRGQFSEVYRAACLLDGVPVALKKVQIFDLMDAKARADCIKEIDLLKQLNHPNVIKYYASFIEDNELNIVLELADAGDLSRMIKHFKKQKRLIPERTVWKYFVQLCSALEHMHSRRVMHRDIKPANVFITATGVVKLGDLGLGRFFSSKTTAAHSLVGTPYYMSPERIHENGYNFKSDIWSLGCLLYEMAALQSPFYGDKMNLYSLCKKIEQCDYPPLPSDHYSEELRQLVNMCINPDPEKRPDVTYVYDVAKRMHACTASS

How the values were obtained:
[1] = molecular target: NIMA-related kinase 7 (NEK7), mouse, endogenous (mouse (endogenous in AML-12 cells and mouse primary hepatocytes)) (UniProt Q9ES74); experiment: co-IP; isolated mitochondrial proteins of AML-12 cells and mouse primary hepatocytes incubated with NEK7 antibody (Abcam) or IgG, agarose magnetic beads, western blotting for NEK7 and SDHB
[2] = molecular target: NIMA-related kinase 7 (NEK7), endogenous, HepG2 mitochondria (human (endogenous in HepG2)) (UniProt Q8TDX7); experiment: co-IP; isolated mitochondrial proteins (at least 1 ug/uL) incubated with NEK7 antibody or IgG 2-4 h at room temperature, magnetic beads at 4 C overnight; western blot; mouse primary hepatocytes, AML-12 cells and HepG2 cells
[3] = molecular target: NEK7, endogenous, mouse hepatocytes (mouse (endogenous in primary hepatocytes and AML-12)) (UniProt Q9ES74); experiment: as above
[4] = molecular target: human NEK7 recombinant protein (HY-P75935, MCE) (human) (UniProt Q8TDX7); experiment: MST; Monolith NT.115; NEK7 labelled with RED-NHS dye, 25 nM; SDHB titrated, highest concentration 16.5 uM; MO.Affinity Analysis v2.3; both purified

B1: succinate dehydrogenase complex iron sulfur subunit B (SDHB), mouse, endogenous (protein, UniProt Q9CQA3 31-282)
chain: AQTAAAAAPRIKKFAIYRWDPDKTGDKPRMQTYEVDLNKCGPMVLDALIKIKNEVDSTLTFRRSCREGICGSCAMNINGGNTLACTRRIDTDLSKVSKIYPLPHMYVIKDLVPDLSNFYAQYKSIEPYLKKKDESQEGKQQYLQSIEDREKLDGLYECILCACCSTSCPSYWWNGDKYLGPAVLMQAYRWMIDSRDDFTEERLAKLQDPFSVYRCHTIMNCTQTCPKGLNPGKAIAEIKKMMATYKEKRALA
B1 was tested, and the binding [1] was “binds”.

B2: succinate dehydrogenase complex iron sulfur subunit B (SDHB), endogenous, HepG2 mitochondria (protein, UniProt P21912 29-280)
chain: AQTAAATAPRIKKFAIYRWDPDKAGDKPHMQTYEVDLNKCGPMVLDALIKIKNEVDSTLTFRRSCREGICGSCAMNINGGNTLACTRRIDTNLNKVSKIYPLPHMYVIKDLVPDLSNFYAQYKSIEPYLKKKDESQEGKQQYLQSIEEREKLDGLYECILCACCSTSCPSYWWNGDKYLGPAVLMQAYRWMIDSRDDFTEERLAKLQDPFSLYRCHTIMNCTRTCPKGLNPGKAIAEIKKMMATYKEKKASV
B2 was tested, and the binding [2] was “binds”.

B3: SDHB, endogenous, mouse hepatocytes (protein, UniProt Q9CQA3 31-282)
chain: AQTAAAAAPRIKKFAIYRWDPDKTGDKPRMQTYEVDLNKCGPMVLDALIKIKNEVDSTLTFRRSCREGICGSCAMNINGGNTLACTRRIDTDLSKVSKIYPLPHMYVIKDLVPDLSNFYAQYKSIEPYLKKKDESQEGKQQYLQSIEDREKLDGLYECILCACCSTSCPSYWWNGDKYLGPAVLMQAYRWMIDSRDDFTEERLAKLQDPFSVYRCHTIMNCTQTCPKGLNPGKAIAEIKKMMATYKEKRALA
B3 was tested, and the binding [3] was “binds”.

B4: human SDHB recombinant protein (Ag29868, Proteintech) (protein, UniProt P21912 29-280)
chain: AQTAAATAPRIKKFAIYRWDPDKAGDKPHMQTYEVDLNKCGPMVLDALIKIKNEVDSTLTFRRSCREGICGSCAMNINGGNTLACTRRIDTNLNKVSKIYPLPHMYVIKDLVPDLSNFYAQYKSIEPYLKKKDESQEGKQQYLQSIEEREKLDGLYECILCACCSTSCPSYWWNGDKYLGPAVLMQAYRWMIDSRDDFTEERLAKLQDPFSLYRCHTIMNCTRTCPKGLNPGKAIAEIKKMMATYKEKKASV
B4 was tested, and the binding [4] was “binds”.
